Experimental findings from patent US20180079804A1 are described below.

Residue numbers refer to the chain shown, from its start. Results are given in words; binding and its absence hold for the method and conditions named.

The target in assay [1] is microtubuli associated tau. Description: ELISA. (In general: ELISA stands for enzyme-linked immunosorbent assay.)
In assay [2] the target is keyhole limpet hemocyanin. Briefly: condition: 1:5 dilution of the cell culture supernatants; ELISA, single-point.

B1: VH32/VL21 (antibody, V domains shown)
VH: EVQVLESGGGLVQPGGSLRLSCAVSGFSLSSNAINWVRQAPGKGLEWVGYIAVSGNTYYASWAKGRFTISRDNSKNTVYLQMNSLRAEDTAVYYCGKSNIWGQGTLVTVSS
VL: AQVMTQSPSSLSASVGDRVTITCRSSQSVRTNKLAWFQQKPGQPPKRLIYSASTLDFGVPSRFSGSGSGTEFTLTISSLQPEDFATYYCLGYFDSSADIVAFGGGTKVEIK
Regarding B1, the binding entry in assay [1] is recorded as “no binding”.

B2: VH32/VL22 (antibody, V domains shown)
VH: B1 VH
VL: B1 VL with K33R, F57Y
As to B2, the binding entry in assay [1] is reported as “no binding”.

B3: mAb 086 (antibody, V domains shown)
VH: QSVEESGGRLVTPGTPLTLTCTVSGFSLSSNAINWVRQAPGKGLEWIGYIAVSGNTYYASWAKGRFTISKASTTVDLKMTSPTAEDTGTYFCGKSNIWGPGTLVTVSL
VL: AQVLTQTTSPVSAAVGSTVTISCQSSQSVRTNKLAWFQQKPGQPPKRLIYSASTLDFGVPSRFSASGSGTQFTLTISDVQCDDAATYYCLGYFDCSIADCVAFGGGTEVVVK
Turning to B3, the binding entry in assay [2] is given as “no binding”.

B4: VH00/VL00 (antibody, V domains shown)
VH: B3 VH
VL: B3 VL
As to B4, the binding result in assay [1] is recorded as “no binding”.
